Experimental data as given in publication PMC7415817.
Results are given in words; binding and its absence hold for the method and conditions named. Binding seen in cells or lysates may run through a third protein. Some results given as binding are weak or reduced against the parent protein; the word gives no strength.

Sequences of proteins named here, by UniProt entry; tags and fusion partners are left off.
UniProt Q71F56: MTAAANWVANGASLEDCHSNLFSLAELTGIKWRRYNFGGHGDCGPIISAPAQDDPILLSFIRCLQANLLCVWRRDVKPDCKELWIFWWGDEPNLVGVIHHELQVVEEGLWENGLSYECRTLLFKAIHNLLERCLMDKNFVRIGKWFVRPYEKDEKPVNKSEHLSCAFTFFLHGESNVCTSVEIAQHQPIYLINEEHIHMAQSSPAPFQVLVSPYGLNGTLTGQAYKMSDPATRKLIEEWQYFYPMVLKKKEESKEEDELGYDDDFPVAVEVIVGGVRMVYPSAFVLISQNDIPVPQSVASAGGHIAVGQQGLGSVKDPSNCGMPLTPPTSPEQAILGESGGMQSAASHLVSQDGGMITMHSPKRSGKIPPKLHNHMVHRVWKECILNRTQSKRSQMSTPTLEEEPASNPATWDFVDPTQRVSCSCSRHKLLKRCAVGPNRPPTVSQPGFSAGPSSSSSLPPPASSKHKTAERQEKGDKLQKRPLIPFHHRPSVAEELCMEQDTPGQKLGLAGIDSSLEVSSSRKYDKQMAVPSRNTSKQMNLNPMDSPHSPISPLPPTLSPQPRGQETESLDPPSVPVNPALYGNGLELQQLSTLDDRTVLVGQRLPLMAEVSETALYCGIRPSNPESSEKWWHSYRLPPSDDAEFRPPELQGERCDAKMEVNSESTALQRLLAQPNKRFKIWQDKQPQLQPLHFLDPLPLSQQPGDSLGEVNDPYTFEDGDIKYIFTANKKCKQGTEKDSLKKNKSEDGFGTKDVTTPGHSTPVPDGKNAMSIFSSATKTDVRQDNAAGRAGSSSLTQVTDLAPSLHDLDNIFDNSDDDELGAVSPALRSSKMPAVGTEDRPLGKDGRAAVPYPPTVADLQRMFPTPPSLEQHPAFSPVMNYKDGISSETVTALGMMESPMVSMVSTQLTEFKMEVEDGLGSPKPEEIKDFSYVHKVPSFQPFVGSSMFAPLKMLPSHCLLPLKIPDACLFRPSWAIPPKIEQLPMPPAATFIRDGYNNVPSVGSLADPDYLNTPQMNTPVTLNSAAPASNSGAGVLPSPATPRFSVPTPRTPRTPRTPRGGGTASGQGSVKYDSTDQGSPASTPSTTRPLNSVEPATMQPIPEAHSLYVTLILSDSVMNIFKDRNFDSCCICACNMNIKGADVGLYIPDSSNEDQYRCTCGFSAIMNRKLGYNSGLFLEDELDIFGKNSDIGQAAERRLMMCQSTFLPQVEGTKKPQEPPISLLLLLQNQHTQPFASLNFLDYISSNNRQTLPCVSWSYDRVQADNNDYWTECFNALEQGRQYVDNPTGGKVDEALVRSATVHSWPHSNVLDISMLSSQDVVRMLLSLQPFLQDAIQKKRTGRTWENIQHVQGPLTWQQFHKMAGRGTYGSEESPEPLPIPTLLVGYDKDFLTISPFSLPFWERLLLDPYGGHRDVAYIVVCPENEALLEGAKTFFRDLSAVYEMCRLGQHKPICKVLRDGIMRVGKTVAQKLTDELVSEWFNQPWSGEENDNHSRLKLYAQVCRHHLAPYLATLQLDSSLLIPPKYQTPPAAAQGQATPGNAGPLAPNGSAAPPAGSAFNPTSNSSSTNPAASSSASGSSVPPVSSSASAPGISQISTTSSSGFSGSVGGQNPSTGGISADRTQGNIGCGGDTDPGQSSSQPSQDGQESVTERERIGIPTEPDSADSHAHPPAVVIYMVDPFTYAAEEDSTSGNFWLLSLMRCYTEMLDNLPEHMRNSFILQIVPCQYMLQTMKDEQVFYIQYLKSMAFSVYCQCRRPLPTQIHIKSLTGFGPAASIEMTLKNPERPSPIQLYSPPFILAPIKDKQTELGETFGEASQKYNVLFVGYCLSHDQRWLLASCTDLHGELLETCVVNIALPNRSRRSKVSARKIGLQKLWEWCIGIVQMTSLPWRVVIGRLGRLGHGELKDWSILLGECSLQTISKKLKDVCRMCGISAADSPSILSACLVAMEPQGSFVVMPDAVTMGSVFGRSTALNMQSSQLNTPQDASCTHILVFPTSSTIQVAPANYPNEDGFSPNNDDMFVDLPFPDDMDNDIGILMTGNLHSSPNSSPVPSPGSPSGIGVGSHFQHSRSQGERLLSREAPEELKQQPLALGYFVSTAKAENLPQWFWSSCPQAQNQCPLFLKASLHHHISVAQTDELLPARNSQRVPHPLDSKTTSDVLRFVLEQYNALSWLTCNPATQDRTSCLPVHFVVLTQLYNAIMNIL
UniProt P24863: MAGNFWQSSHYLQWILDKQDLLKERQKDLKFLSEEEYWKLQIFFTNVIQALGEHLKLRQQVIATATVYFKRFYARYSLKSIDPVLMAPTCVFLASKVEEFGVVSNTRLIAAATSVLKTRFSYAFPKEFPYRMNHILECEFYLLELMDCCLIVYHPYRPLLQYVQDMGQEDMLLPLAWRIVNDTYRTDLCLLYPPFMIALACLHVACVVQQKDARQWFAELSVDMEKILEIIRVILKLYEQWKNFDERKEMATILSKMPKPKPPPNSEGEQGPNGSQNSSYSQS
UniProt Q15648: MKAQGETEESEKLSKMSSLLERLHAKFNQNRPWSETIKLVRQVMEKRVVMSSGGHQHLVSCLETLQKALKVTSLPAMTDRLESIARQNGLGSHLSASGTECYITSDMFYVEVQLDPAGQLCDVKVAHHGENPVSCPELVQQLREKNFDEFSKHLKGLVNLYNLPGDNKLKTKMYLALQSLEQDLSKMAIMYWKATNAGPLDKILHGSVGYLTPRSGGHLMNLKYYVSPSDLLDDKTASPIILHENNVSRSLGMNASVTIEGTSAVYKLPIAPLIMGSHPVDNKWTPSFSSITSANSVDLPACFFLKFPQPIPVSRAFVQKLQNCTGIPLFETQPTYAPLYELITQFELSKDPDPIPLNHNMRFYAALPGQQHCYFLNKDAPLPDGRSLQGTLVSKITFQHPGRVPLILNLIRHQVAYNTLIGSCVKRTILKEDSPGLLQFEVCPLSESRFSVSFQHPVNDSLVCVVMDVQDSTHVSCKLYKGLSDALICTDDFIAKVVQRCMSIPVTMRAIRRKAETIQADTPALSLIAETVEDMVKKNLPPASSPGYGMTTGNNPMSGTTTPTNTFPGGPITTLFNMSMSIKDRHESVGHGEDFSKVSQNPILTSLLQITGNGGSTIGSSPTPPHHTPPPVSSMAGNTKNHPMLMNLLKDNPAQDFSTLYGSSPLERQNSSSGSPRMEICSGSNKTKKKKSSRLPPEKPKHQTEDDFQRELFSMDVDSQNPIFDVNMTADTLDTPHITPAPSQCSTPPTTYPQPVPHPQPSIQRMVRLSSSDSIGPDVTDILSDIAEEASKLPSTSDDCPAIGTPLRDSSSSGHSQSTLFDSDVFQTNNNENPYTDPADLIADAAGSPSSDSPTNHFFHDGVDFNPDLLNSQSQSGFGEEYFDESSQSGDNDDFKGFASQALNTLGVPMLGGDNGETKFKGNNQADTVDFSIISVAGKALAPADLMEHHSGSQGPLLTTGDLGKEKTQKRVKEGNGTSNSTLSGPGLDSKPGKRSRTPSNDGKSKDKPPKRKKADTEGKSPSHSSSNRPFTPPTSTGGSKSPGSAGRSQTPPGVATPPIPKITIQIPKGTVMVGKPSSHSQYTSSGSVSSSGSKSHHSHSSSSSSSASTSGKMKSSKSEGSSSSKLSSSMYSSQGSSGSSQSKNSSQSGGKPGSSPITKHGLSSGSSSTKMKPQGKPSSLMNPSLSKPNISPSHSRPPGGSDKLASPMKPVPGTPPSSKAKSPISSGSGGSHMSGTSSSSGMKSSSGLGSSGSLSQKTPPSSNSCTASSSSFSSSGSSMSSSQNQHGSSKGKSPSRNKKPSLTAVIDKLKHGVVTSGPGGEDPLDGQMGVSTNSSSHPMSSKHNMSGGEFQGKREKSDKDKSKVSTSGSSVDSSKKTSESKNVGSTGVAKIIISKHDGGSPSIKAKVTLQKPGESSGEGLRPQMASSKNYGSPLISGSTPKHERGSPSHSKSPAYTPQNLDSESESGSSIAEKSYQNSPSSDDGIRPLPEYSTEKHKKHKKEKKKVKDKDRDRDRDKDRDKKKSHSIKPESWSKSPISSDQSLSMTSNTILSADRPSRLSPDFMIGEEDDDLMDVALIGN
UniProt Q09472: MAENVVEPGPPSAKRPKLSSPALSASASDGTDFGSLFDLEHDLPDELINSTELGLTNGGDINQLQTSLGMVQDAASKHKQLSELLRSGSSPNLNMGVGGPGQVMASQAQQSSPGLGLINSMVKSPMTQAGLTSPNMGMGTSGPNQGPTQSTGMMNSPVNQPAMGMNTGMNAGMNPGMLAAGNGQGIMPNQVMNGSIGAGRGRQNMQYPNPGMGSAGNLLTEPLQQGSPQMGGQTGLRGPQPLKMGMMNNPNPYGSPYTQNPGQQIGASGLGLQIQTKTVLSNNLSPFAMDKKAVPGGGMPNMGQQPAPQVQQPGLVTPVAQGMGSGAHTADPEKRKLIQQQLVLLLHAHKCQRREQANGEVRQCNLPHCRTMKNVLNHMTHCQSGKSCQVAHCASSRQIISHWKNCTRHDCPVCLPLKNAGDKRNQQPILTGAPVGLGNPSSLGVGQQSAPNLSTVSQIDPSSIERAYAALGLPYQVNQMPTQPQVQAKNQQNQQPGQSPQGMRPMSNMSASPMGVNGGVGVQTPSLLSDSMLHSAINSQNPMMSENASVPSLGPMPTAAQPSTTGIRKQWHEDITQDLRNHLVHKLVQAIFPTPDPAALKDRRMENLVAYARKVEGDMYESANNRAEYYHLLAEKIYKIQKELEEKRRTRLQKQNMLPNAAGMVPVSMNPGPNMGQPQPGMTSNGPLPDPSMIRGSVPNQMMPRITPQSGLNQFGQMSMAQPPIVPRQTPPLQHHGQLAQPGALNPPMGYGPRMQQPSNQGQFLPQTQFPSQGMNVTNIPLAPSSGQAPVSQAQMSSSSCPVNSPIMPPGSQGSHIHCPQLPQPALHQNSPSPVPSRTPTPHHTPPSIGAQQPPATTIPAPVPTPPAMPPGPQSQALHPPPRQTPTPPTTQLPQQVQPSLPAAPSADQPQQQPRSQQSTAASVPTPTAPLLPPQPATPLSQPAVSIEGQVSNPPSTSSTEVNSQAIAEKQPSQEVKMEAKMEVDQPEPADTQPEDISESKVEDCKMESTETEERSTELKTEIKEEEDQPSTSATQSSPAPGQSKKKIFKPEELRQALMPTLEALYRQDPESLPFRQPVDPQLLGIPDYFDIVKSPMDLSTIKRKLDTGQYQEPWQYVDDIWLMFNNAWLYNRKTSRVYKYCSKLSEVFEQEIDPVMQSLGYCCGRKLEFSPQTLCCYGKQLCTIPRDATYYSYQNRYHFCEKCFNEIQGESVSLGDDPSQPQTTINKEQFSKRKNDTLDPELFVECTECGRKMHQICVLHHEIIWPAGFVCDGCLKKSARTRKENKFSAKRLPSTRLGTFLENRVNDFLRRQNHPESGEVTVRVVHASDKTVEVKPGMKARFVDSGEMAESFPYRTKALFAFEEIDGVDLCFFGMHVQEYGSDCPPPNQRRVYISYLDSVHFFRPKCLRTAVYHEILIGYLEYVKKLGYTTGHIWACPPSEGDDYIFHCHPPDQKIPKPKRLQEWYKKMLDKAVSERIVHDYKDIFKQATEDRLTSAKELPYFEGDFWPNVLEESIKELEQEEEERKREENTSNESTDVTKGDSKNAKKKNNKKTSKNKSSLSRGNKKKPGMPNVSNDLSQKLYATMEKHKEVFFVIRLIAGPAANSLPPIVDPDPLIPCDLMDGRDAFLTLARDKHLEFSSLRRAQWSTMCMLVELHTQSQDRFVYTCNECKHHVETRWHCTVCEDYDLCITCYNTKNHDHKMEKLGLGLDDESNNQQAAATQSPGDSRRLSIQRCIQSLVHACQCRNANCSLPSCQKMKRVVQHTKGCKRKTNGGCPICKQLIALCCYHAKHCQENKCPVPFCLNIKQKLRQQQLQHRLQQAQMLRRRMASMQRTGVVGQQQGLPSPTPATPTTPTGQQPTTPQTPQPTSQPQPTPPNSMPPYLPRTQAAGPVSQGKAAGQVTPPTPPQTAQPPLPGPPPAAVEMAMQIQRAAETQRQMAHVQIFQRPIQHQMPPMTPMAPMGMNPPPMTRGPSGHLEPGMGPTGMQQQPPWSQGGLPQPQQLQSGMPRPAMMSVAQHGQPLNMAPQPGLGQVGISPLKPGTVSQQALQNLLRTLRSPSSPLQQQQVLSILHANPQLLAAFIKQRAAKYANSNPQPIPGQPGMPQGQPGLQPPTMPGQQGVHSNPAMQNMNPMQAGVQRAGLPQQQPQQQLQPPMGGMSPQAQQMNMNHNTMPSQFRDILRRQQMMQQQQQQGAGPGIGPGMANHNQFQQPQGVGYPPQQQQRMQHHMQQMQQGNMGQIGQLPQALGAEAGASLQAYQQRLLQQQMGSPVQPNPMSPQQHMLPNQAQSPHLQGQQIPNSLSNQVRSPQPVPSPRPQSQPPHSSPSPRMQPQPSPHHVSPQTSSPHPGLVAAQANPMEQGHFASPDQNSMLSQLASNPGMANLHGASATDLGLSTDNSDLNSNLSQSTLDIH

Legend:
Assay in all cases: co-IP; endogenous proteins in lysates of PC9 and A549 cells (20 mmol/L Tris-HCl pH 8.0, 10 mmol/L NaCl, 1 mmol/L EDTA, 0.5% NP-40); antibody or control IgG overnight at 4 °C, Protein G Dynabeads, Western blot; cells with or without silencing of MED13L
[1] = target: MED12 (human (endogenous in PC9 and A549)) (UniProt Q93074)
[2] = target: T1, MED23 (human (endogenous in PC9 and A549)) (UniProt Q9ULK4)
T1 sequence: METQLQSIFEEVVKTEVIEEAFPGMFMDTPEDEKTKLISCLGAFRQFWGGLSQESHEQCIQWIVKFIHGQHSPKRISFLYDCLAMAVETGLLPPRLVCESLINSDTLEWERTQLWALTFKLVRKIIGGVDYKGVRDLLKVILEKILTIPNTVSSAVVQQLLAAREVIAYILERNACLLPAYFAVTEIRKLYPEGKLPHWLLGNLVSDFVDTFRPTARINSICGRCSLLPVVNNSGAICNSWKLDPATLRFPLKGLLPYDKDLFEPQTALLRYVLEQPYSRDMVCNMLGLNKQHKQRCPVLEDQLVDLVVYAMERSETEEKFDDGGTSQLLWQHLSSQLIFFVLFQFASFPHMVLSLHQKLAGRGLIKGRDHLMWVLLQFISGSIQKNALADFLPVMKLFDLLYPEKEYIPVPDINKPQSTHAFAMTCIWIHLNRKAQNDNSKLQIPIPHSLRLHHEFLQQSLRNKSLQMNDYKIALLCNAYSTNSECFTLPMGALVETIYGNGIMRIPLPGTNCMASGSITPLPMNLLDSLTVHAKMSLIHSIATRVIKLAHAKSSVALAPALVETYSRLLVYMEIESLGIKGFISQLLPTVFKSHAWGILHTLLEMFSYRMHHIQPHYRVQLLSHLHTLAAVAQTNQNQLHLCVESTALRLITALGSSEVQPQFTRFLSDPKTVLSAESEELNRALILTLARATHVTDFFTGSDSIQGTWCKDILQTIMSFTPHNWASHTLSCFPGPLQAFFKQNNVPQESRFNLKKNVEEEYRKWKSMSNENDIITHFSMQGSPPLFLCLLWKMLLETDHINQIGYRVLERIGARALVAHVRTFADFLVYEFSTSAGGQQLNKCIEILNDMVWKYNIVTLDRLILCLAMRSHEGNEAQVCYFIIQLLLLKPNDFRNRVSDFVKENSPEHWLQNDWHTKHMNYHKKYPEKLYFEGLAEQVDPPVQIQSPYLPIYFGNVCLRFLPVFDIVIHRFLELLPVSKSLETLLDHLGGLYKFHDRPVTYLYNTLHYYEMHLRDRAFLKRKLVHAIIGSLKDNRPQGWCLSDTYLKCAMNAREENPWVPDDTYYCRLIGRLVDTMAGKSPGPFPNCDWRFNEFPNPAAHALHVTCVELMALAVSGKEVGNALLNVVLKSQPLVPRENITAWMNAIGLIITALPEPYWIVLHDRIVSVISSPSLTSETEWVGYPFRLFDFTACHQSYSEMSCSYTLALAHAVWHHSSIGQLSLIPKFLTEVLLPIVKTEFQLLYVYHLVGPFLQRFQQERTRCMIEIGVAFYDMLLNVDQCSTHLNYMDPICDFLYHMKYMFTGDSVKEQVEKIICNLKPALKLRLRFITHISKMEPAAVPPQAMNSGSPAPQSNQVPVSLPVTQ

[3] = target: MED13L (human (endogenous in PC9 and A549)) (UniProt Q71F56)

Substance	binding [1]	binding [2]	binding [3]
CCNC (from UniProt P24863 1-283)	binds		
MED1 (from UniProt Q15648 1-1581)		binds	
acetyltransferase P300 (from UniProt Q09472 1-2414)	binds		binds
